Results on 6 substances are retold here after publication doi:10.1101/2021.09.20.461083.

By UniProt entry, the sequences of proteins in these tests, tags left out.
UniProt Q13342: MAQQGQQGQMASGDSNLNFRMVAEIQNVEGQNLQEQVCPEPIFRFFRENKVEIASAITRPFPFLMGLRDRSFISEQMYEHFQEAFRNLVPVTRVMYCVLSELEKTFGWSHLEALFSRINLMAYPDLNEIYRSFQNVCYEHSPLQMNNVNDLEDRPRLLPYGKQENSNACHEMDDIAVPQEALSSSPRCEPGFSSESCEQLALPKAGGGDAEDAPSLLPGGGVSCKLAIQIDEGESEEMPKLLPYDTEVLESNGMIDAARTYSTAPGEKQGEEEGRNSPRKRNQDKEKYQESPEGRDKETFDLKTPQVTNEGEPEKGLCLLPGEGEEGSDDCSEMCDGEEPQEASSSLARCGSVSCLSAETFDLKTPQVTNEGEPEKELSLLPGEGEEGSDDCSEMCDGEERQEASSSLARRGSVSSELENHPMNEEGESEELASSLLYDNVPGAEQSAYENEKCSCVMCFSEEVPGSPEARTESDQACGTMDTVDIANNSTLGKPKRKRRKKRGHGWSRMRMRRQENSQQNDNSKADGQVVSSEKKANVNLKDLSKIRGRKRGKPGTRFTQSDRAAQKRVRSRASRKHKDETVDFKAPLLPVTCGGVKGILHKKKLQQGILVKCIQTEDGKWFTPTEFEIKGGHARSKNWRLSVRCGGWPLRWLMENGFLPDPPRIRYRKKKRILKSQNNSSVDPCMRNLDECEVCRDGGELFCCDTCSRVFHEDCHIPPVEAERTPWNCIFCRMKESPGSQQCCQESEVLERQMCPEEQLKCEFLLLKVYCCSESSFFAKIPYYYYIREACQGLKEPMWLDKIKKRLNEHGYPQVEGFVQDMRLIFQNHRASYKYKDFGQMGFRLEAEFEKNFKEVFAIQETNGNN
UniProt P78527: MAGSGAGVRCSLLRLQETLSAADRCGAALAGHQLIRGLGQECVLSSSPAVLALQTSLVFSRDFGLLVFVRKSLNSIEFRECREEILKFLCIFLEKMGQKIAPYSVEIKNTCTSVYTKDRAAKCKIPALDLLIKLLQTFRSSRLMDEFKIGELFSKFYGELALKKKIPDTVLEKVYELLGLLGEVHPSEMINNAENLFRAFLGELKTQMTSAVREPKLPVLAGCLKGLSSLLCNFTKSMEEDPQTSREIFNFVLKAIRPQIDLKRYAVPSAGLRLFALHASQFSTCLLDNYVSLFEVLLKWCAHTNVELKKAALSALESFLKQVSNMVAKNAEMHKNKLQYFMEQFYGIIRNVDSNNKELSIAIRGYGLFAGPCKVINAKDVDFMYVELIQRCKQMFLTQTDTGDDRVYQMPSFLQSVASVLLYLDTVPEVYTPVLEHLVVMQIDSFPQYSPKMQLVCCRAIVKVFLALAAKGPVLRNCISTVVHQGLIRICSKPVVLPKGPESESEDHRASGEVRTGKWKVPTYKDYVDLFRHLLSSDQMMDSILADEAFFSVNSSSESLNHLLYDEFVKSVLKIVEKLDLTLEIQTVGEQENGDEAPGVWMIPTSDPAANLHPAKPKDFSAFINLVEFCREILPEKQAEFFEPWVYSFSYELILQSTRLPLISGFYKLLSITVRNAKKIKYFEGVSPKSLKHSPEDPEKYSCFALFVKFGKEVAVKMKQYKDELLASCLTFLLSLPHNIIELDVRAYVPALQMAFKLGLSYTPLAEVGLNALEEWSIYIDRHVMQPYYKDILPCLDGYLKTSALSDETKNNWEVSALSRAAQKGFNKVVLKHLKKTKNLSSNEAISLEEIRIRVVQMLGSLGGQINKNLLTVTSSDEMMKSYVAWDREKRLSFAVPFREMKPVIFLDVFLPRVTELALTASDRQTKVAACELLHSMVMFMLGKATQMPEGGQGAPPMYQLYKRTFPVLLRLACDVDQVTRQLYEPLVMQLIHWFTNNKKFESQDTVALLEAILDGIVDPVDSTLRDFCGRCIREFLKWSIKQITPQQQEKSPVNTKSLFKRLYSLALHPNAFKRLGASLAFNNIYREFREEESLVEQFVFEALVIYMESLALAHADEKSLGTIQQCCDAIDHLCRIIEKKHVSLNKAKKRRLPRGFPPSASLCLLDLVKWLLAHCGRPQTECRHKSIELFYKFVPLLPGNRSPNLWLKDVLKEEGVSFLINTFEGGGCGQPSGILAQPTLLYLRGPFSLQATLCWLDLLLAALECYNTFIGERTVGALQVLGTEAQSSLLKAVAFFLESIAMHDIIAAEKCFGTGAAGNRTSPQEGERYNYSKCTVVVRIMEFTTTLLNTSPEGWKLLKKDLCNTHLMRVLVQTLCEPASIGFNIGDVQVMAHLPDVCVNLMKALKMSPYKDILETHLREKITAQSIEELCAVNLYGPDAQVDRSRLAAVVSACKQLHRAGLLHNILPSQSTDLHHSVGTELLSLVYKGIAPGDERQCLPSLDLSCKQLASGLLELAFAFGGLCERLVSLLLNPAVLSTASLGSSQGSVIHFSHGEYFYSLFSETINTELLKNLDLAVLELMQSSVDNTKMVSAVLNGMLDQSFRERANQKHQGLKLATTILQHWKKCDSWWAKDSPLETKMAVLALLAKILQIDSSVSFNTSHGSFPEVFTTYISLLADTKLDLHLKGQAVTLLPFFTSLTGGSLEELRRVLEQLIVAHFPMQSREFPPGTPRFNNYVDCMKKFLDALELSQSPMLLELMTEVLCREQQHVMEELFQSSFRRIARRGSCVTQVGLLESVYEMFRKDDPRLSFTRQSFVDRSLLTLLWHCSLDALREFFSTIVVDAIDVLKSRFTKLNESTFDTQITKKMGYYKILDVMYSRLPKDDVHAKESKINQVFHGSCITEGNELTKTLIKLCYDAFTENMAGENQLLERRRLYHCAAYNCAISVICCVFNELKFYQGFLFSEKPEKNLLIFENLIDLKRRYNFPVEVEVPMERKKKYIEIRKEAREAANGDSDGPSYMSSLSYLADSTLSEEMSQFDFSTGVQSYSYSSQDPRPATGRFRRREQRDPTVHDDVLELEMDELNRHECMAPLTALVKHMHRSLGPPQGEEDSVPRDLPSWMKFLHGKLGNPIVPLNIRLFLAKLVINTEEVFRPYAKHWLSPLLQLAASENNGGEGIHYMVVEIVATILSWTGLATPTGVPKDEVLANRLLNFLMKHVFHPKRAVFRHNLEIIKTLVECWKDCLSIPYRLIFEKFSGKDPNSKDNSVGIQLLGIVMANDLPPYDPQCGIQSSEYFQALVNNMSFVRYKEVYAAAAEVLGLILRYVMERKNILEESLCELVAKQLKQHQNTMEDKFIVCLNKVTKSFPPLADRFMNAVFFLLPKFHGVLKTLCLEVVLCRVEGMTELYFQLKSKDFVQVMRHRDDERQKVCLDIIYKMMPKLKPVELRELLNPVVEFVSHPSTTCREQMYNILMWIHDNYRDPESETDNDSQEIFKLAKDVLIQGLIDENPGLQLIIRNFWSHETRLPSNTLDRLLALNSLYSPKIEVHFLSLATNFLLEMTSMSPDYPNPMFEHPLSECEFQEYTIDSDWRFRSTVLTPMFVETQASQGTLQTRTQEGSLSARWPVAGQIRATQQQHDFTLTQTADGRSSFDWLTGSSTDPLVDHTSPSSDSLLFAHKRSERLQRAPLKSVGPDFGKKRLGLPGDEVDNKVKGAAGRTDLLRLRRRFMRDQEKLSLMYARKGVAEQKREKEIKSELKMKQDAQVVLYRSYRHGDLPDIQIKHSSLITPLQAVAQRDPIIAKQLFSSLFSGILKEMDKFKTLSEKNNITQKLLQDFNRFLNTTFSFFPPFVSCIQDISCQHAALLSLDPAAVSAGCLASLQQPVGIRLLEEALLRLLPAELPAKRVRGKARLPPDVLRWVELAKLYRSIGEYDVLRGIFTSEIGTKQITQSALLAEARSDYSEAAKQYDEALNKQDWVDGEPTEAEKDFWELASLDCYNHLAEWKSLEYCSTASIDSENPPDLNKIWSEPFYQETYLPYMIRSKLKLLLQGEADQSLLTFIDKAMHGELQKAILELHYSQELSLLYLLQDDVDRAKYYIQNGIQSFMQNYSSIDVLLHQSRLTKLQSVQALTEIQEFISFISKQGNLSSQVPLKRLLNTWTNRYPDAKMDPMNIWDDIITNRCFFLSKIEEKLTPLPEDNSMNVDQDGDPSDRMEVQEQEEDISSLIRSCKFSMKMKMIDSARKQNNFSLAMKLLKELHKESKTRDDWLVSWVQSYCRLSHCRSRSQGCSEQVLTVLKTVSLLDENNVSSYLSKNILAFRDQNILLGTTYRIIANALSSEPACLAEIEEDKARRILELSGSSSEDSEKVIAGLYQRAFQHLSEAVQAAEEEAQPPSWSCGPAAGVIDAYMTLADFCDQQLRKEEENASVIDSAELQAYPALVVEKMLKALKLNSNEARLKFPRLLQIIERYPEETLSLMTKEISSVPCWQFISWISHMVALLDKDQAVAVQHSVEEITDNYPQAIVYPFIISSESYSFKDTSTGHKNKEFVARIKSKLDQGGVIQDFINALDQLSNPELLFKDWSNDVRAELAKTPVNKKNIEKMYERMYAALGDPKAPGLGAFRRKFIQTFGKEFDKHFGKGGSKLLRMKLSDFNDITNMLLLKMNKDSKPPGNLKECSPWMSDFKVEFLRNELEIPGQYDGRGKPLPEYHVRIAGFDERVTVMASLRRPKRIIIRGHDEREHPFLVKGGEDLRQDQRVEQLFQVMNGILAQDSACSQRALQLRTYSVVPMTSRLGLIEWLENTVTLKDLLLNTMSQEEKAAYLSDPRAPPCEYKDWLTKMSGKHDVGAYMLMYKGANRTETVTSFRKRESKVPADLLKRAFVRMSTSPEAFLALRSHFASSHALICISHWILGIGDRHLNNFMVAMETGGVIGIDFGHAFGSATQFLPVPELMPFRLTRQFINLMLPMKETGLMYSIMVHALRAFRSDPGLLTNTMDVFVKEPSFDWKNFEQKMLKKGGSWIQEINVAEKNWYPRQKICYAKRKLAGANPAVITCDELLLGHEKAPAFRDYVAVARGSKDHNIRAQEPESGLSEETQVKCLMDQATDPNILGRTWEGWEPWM
UniProt Q9Y5B9: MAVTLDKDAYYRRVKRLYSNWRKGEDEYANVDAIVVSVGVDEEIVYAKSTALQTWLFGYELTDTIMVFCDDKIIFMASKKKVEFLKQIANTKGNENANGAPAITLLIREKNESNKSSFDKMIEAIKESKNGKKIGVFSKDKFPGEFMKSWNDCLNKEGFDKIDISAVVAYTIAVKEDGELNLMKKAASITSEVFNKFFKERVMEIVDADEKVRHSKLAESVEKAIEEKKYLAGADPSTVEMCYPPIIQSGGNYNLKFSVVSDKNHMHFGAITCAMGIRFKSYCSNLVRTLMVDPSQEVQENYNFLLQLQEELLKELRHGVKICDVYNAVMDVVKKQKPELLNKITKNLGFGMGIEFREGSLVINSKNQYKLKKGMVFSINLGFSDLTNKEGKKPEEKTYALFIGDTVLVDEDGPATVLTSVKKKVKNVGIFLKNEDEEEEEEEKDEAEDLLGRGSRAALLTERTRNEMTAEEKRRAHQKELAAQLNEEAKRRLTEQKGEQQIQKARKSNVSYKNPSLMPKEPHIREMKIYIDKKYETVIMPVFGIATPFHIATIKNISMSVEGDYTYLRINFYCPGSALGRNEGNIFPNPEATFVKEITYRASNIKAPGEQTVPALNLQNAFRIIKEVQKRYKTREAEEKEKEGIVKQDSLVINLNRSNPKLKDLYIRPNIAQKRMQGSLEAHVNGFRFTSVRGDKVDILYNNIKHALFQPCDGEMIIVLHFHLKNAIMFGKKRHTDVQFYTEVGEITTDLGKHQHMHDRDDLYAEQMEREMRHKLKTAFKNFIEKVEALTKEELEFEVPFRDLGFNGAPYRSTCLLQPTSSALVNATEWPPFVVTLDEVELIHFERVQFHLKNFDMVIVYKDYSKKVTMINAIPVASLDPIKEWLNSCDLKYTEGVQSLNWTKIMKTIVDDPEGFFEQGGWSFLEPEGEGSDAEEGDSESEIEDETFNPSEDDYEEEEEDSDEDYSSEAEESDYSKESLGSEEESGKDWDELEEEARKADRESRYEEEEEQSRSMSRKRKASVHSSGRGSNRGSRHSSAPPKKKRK

Results are given in words; binding and its absence hold for the method and conditions named. In cells and extracts the contact can be indirect. These calls come from enrichment with a bait or labelling near it, and not all partners need be listed.

Assay [1] concerns the target FLAG-tagged human SP140 (Speckled Protein 140) (human) (UniProt Q13342). Briefly: affinity purification with mass spectrometry.
The target of assay [2] is endogenous SP140 (wild-type) (human (endogenous in THP1 and LBL)) (UniProt Q13342). Briefly: affinity purification with mass spectrometry.

As for “DNA-dependent protein kinase (DNA-PK) (from UniProt P78527 1-4128) (enzyme)”, the binding result in assay [1] and in assay [2] was “binds” throughout.
On to “FACT complex subunit SSRP1 (SSRP1) (from UniProt Q08945 1-709)”, for which the binding entry in assay [1] and in assay [2] was “binds” in each case.
Regarding “Facilitates chromatin transcription (FACT) complex subunit SPT16 (SUPT16H) (from UniProt Q9Y5B9 1-1047)”, the binding result in assay [1] and in assay [2] was “binds” in each case.
In the case of “SWI/SNF-related matrix-associated actin-dependent regulator of chromatin subfamily A member 5 (SMARCA5) (from UniProt O60264 1-1052) (enzyme)”, the binding result in assay [1] is “binds”.
“Topoisomerase I (TOP1) (from UniProt P11387 1-765) (enzyme)”: the binding entry in assay [1] and in assay [2] was “binds” in each case.
In the case of “Topoisomerase II beta (TOP2B) (from UniProt Q02880 1-1626) (enzyme)”, the binding entry in assay [1] and in assay [2] was “binds” each time.
